Data as given in PubChem BioAssay AID504791 (Drosophila RNAi Screening Center, 2011)
Test: 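Genes whose knock-down strengthens or weakens small-RNA reporter silencing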 (primary screen). System: Drosophila S2-derived reporter cells. Reagent: long dsRNA against Drosophila genes, about 150-250 ng dsRNA per well (siRNA assay); about 80-120 ng (miRNA assay). Time to read-out: about 5 days (siRNA assay); about 4 days (miRNA assay). Conditions: copper sulfate induction of reporters: 25 µM (siRNA assay); 200 mM stated (miRNA assay), 1-2 days before reading. Detection: 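Dual luciferase assay: Renilla to firefly signal ratio in each well, scaled to the mean ratio of its plate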. Rule for the call: 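First-pass picks had plate-scaled ratios over 1.5 for the siRNA assay, over 1.6 for the miRNA assay, or under 0.6; two distinct dsRNAs had to score alike on retest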.
The screen tested about 23,000 reagents; shown is a random part of those that have a named target and a result. Over the whole deposit, 199 (0.86%) got an active call. 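Plate-scaled ratios behind the calls are not deposited; printed light signals are raw; many rows marked increased or decreased are still called inactive.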 Names joined by + are all predicted targets of the reagent. Not all columns of the deposit are shown. The record does not give: the direction of the score.

gene,DRSC id,stable siRNA reporter change,miRNA reporter change,"stable assay Renilla, run 1 (luminescence)",activity call
CG30412,DRSC04564,,,42814,inactive
CG15550,DRSC15088,,,5734,inactive
Or67a,DRSC11240,,,5059,inactive
Cpr67Fb,DRSC10314,,,5504,inactive
CG31999,DRSC17131,,,6918,inactive
CG31999,DRSC17133,,,7179,inactive
CG17601,DRSC20639,,,4679,inactive
CG3168,DRSC18287,,,7067,inactive
Sou,DRSC04356,,,6878,inactive
TfIIA-L,DRSC16882,,,6443,inactive
CG32305,DRSC08614,,,6458,inactive
CG4049,DRSC04443,,,5404,inactive
Osi21,DRSC02408,,,7385,inactive
Ppat-Dpck,DRSC09744,,,7595,inactive
CG14879,DRSC15003,,,6264,inactive
CG31788,DRSC01630,,,5095,inactive
SdhD,DRSC14215,,,6774,inactive
RhoGAP5A,DRSC18294,,,8813,inactive
CG31809,DRSC01561,,,4734,inactive
spd-2,DRSC09682,,,11218,inactive
ThrRS,DRSC02843,,,9306,inactive
CG43795,DRSC04192,,,7362,inactive
CG43795,DRSC04193,,,7634,inactive
CG43795,DRSC04194,,,5100,inactive
CG43795,DRSC04309,,,5358,inactive
CG43795,DRSC04310,,,5483,inactive
CG43795,DRSC22826,,,3691,inactive
Acn,DRSC02062,,,26808,inactive
PH4alphaMP,DRSC17031,,,6098,inactive
CG32564,DRSC19933,,,4547,inactive
CG34324,DRSC19502,,,4812,inactive
CG34324,DRSC23241,,,5064,inactive
RpS15,DRSC07151,,reporter ratio lowered past the hit cutoff,7468,active
Spn43Ad,DRSC06770,,,6986,inactive
CG32507,DRSC20421,,,4615,inactive
Ddc,DRSC03314,,,6407,inactive
CRMP,DRSC12073,,reporter ratio raised past the hit cutoff,5968,inactive
CRMP,DRSC12345,,,7291,inactive
Lcp65Ag3,DRSC10345,,,3840,inactive
CG42542,DRSC15549,,,6686,inactive
CG42542,DRSC22264,,,10106,inactive
hh,DRSC16965,,,7310,inactive
hh,DRSC29242,,reporter ratio raised past the hit cutoff,,inactive
S-Lap8,DRSC06870,,,4815,inactive
S-Lap8,DRSC21372,,,9293,inactive
CG34253,DRSC09531,,,5655,inactive
Ravus,DRSC15126,,,6958,inactive
CG3698,DRSC11749,,,11038,inactive
CG13743,DRSC05139,,,5018,inactive
CG13743,DRSC06414,,,4368,inactive
CG13743,DRSC22775,,,3899,inactive
CG8065,DRSC10959,,,6070,inactive
CaMKI,DRSC17162,,,9189,inactive
Cp190,DRSC16607,,,6383,inactive
CG12929,DRSC06242,,,5962,inactive
Naam,DRSC16252,,,7402,inactive
chico,DRSC03531,,,29098,inactive
Or69a,DRSC11243,,,6342,inactive
Dtwd2 + Obp84a,DRSC12603,,,6987,inactive
CG31496,DRSC12547,,,5027,inactive
CG31496,DRSC27899,,reporter ratio raised past the hit cutoff,,inactive
Cpr23B,DRSC00555,,reporter ratio raised past the hit cutoff,7549,inactive
Cpr23B,DRSC23504,,reporter ratio raised past the hit cutoff,,inactive
heix,DRSC03542,,,9763,inactive
tws,DRSC12767,,,4704,inactive
tws,DRSC17092,,,9416,inactive
GNBP3,DRSC11170,,,6750,inactive
Osi24,DRSC12275,,,6868,inactive
CG31102,DRSC14260,,,6027,inactive
fiz,DRSC20188,,,8810,inactive
Cdk4,DRSC07358,,,7094,inactive
CG15425,DRSC00440,reporter ratio lowered past the hit cutoff,,6854,inactive
zye,DRSC11784,,,7039,inactive
CG12104,DRSC08254,,,5812,inactive
CG17111,DRSC15174,,,6331,inactive
CG31468,DRSC13637,,,7323,inactive
CG32814,DRSC17670,,,6858,inactive
CG30187,DRSC22461,,,3831,inactive
CG10991 (retired record),DRSC12156,,,7678,inactive
bsk,DRSC03499,,,14540,inactive
Rab18,DRSC18702,,,8705,inactive
Or46a,DRSC07489,,,6243,inactive
Or46a,DRSC07490,,,6835,inactive
Or46a,DRSC21590,,,9249,inactive
mRpL55,DRSC14764,reporter ratio lowered past the hit cutoff,,6856,inactive
Cmtr1,DRSC18400,,,6404,inactive
asrij,DRSC04175,,,7170,inactive
B52,DRSC14121,,,4915,inactive
Pkn,DRSC06809,,,8306,inactive
Pkn,DRSC06810,,,5451,inactive
CG3795,DRSC18593,,,7462,inactive
CG5860,DRSC15896,,,9216,inactive
CG15126,DRSC06548,,,5071,inactive
CG5245,DRSC15750,,,6124,inactive
ODA-Dnal1,DRSC07270,,,6550,inactive
cta,DRSC03769,,,32410,inactive
CG18135,DRSC10295,,,9060,inactive
EloC,DRSC07423,,reporter ratio lowered past the hit cutoff,4935,active
faf,DRSC16942,,,5452,inactive
CG16758,DRSC07984,,,6234,inactive
CG16758,DRSC08492,,,9783,inactive
drk,DRSC07606,,,7030,inactive
Bem46,DRSC00275,,,7094,inactive
CG16904,DRSC15161,,,8422,inactive
CG10182,DRSC14202,,,6055,inactive
CG34176,DRSC00435,,,7334,inactive
